Measurements reported in paper PMC5949603 (Chemical Science, 2015).
Bridges are numbered along the chain shown (N, C = ends). [ ]: non-standard residue; d: D form.

Assay: general procedure: Fmoc solid-phase peptide synthesis; Wang resin; 2-chlorotrityl (2CT) resin; HATU, iPr2EtN (cyclisations)
Details: for cyclisation yield: cyclisation step, second cyclization; for isolated yield: whole synthesis
[1] = total yield (SPPS and second thioether ligation), TFA salt

Substance	isolated yield [1]	also measured
[dL]G[dK][dF]PE[dA] (lactam 3-C, N-6; SMILES CC(C)C[C@H]1NC(=O)CC[C@@H]2NC(=O)[C@@H]3CCCN3C(=O)[C@@H](Cc3ccccc3)NC(=O)[C@@H](CCCCNC(=O)[C@@H](C)NC2=O)NC(=O)CNC1=O)	–	cyclisation yield (TFA salt): 82%
{CH2CO}-KEK[dW][dC]WKG-NH2 (lactam 2-7; thioether N-5; SMILES NCCCC[C@@H]1NC(=O)CSC[C@H]2NC(=O)[C@@H](Cc3c[nH]c4ccccc34)NC(=O)[C@H](CCCCN)NC(=O)[C@H](CCC(=O)NCCCC[C@@H](C(=O)NCC(N)=O)NC(=O)[C@H](Cc3c[nH]c4ccccc34)NC2=O)NC1=O)	11%	–
L^1GKYPE^1A	–	isolated yield (trifluoroacetate salts): 35%
R ^2 E ^1 Rf z ^2 FK^1GFGGK(biot)	4%	–
LG[dK][dY]PEA (lactam 3-C, N-6; SMILES CC(C)C[C@@H]1NC(=O)CC[C@@H]2NC(=O)[C@@H]3CCCN3C(=O)[C@@H](Cc3ccc(O)cc3)NC(=O)[C@@H](CCCCNC(=O)[C@H](C)NC2=O)NC(=O)CNC1=O)	–	cyclisation yield (TFA salt): 42%
{CH2CO}-RER[dF][dC]FKG-NH2 (lactam 2-7; thioether N-5; SMILES N=C(N)NCCC[C@@H]1NC(=O)CSC[C@H]2NC(=O)[C@@H](Cc3ccccc3)NC(=O)[C@H](CCCNC(=N)N)NC(=O)[C@H](CCC(=O)NCCCC[C@@H](C(=O)NCC(N)=O)NC(=O)[C@H](Cc3ccccc3)NC2=O)NC1=O)	3%	–
E ^2 E ^1 Ef z ^2 FK^1GFGGK(biot)	4%	–
L^1GKFPE^1A	–	isolated yield (trifluoroacetate salts): 30%
K^2E^1Kwz^2WK^1GFGGK(biot)	5%	–
